Data as given in PubChem BioAssay AID1159578 (Peter MacCallum Cancer Centre, 2015)
This is an unselected part of about 18,000 reagents. Of all reagents, about 1,030 (5.7%) were called active. 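Inactive calls also include pools with fewer than 3300 nuclei, whose migration was not assessed.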 Raw values vary from plate to plate and are shown uncorrected.

Aim: 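Genome-wide hunt for genes controlling movement of lymphatic endothelial cells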 (primary screen)
Cells: human lymphatic endothelial cells
Reagents: siRNA pool against human genes, 40 nM
Timing: 48 h after transfection
Measurement: 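Cells stained with dye and imaged after a scratch; covered wound area and nuclei counted, duplicates averaged, migration set against mock wells and turned into a robust z-score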
Reading the numbers: migration robust z-score: higher = faster migration into the scratch; migration relative to mock: higher = more scratch area covered than mock; nuclei per well: higher = more cells in the well
Hit rule: 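Pools averaging fewer than 3300 nuclei are never called; remaining pools count as changed when migration robust z lies outside -2 to 2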
Meaning of the calls: active = migration changed; inactive = no migration change, or too few cells

gene	migration robust z-score	migration class with cell-count check	migration relative to mock	nuclei per well, duplicate mean	Call
PSMB4 (proteasome 20S subunit beta 4)	-0.73	migration z between -2 and 2; enough cells	0.66	5448	inactive
ACADS (acyl-CoA dehydrogenase short chain)	0.28	migration z between -2 and 2; enough cells	0.86	4898	inactive
PIGO (phosphatidylinositol glycan anchor biosynthesis class O)	-0.08	migration z between -2 and 2; enough cells	0.79	6166	inactive
OR9A2 (olfactory receptor family 9 subfamily A member 2)	0.48	migration z between -2 and 2; enough cells	1.01	5188	inactive
PLA2G15 (phospholipase A2 group XV)	0.86	migration z between -2 and 2; enough cells	0.97	6316	inactive
RBM48 (RNA binding motif protein 48)	1.04	migration z between -2 and 2; enough cells	1.16	5890	inactive
RARS2 (arginyl-tRNA synthetase 2, mitochondrial)	0.39	migration z between -2 and 2; enough cells	0.88	4168	inactive
HOMEZ (homeobox and leucine zipper encoding)	-2.26	migration z below -2; enough cells	0.3	5812	active
DVL3 (dishevelled segment polarity protein 3)	0.55	migration z between -2 and 2; enough cells	1.02	6308	inactive
SLC22A5	-0.29	migration z between -2 and 2; enough cells	0.75	4876	inactive
SAC3D1 (SAC3 domain containing 1)	0.34	migration z between -2 and 2; enough cells	0.98	5512	inactive
SNX29P1 (sorting nexin 29 pseudogene 1)	0.48	migration z between -2 and 2; enough cells	1	6173	inactive
OR6N2 (olfactory receptor family 6 subfamily N member 2)	-2.16	migration z below -2; enough cells	0.32	5152	active
GPR151 (G protein-coupled receptor 151)	0.42	migration z between -2 and 2; enough cells	0.88	6087	inactive
DHODH (dihydroorotate dehydrogenase (quinone))	-1.48	migration z between -2 and 2; enough cells	0.52	3848	inactive
OR5D13 (olfactory receptor family 5 subfamily D member 13)	-0.88	migration z between -2 and 2; enough cells	0.66	4607	inactive
NME9 (NME/NM23 family member 9)	0.26	migration z between -2 and 2; enough cells	0.86	6500	inactive
NLRC4 (NLR family CARD domain containing 4)	-0.21	migration z between -2 and 2; enough cells	0.76	4686	inactive
FN3K (fructosamine 3 kinase)	-1.09	migration z between -2 and 2; enough cells	0.6	4709	inactive
MTM1 (myotubularin 1)	0.21	migration z between -2 and 2; enough cells	0.84	6714	inactive
ADAMTS8 (ADAM metallopeptidase with thrombospondin type 1 motif 8)	0.23	migration z between -2 and 2; enough cells	0.85	5360	inactive
DRD2 (dopamine receptor D2)	0.2	migration z between -2 and 2; enough cells	0.84	5611	inactive
SYPL2 (synaptophysin like 2)	-1.69	migration z between -2 and 2; enough cells	0.44	5676	inactive

Reformatted: results already given.
gene,migration robust z-score,migration class with cell-count check,migration relative to mock,"nuclei per well, duplicate mean",Call
DHODH (dihydroorotate dehydrogenase (quinone)),-1.48,migration z between -2 and 2; enough cells,0.52,3848,inactive
OR5D13 (olfactory receptor family 5 subfamily D member 13),-0.88,migration z between -2 and 2; enough cells,0.66,4607,inactive
